Measured values taken from PubChem BioAssay (EPA / NIEHS).
“And” between values parts separate entries of the source, which are not always exact repeats. Equal entries are not always repeated. The inconclusive results got no clear call from the source; some entries with a clear call stand among them for comparison. Potencies beside an inconclusive call are fits to weak or partial responses and may not hold up. More than one record can exist for a structure, and the calls need not agree. The source made the active and inactive calls. How the source made its calls: active means hit-call score of the fitted dose curve at least 0.9, where 1 is the maximum; inconclusive means response in the unintended direction; inactive means score below 0.9.

Sequences of proteins named here, by UniProt entry; tags and fusion partners are left off. A change or cut given only in a name is not applied to a line headed by its entry.
UniProt Q96RI1: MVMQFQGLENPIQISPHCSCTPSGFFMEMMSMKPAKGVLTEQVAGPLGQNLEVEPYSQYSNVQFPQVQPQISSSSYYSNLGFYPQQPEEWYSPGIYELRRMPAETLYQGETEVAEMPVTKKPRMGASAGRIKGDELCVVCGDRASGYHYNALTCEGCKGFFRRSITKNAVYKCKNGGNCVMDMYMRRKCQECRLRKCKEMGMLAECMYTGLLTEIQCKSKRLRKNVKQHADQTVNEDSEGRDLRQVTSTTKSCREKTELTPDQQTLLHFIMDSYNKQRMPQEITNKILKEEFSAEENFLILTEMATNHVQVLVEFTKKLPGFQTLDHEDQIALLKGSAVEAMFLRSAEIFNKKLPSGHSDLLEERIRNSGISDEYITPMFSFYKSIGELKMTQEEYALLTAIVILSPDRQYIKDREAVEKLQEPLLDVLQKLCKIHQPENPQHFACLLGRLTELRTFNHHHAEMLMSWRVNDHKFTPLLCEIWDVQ
UniProt Q03181: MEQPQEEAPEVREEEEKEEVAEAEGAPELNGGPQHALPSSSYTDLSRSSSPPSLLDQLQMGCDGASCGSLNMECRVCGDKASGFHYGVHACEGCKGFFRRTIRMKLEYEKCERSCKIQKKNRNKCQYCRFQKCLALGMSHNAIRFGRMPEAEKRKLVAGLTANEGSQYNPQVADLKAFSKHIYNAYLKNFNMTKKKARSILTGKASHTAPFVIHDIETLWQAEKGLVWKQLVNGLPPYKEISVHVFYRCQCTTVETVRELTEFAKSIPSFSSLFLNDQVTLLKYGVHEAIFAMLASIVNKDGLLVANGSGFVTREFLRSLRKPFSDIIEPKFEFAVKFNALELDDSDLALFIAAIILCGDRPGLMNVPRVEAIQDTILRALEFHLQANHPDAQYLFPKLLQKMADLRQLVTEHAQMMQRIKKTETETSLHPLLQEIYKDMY
UniProt O75469: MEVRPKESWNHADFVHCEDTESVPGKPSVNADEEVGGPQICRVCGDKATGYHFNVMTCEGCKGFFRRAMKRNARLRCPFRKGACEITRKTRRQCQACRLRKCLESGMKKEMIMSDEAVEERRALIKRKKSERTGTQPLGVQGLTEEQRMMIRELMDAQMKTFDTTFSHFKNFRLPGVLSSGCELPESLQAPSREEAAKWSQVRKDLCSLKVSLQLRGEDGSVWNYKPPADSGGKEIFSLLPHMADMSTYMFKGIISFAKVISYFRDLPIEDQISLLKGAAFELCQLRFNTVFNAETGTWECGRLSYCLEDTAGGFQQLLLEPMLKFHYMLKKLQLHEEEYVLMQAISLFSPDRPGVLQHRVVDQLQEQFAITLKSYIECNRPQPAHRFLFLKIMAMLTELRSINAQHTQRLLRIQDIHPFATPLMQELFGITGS
UniProt Q01717: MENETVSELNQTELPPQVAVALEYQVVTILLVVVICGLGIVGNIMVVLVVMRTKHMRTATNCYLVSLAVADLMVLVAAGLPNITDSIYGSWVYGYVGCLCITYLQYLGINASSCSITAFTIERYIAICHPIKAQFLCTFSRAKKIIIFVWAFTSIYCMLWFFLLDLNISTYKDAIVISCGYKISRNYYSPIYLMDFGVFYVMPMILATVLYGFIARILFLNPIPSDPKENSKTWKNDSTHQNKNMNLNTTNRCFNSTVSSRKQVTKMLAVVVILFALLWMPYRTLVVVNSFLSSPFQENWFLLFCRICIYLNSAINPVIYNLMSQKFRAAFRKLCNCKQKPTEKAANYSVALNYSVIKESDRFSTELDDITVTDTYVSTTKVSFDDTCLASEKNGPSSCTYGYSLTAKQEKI
UniProt P04637, whole entry, looked up: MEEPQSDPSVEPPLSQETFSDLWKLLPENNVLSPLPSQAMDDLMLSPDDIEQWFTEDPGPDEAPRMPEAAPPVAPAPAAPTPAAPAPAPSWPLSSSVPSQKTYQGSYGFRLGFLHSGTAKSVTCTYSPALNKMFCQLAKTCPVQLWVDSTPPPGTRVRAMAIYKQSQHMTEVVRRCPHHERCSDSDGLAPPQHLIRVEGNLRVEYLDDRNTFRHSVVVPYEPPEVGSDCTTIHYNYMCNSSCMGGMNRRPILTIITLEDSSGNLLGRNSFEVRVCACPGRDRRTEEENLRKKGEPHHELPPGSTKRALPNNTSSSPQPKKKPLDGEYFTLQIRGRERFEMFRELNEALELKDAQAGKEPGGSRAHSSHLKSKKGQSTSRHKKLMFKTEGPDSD
UniProt P04150: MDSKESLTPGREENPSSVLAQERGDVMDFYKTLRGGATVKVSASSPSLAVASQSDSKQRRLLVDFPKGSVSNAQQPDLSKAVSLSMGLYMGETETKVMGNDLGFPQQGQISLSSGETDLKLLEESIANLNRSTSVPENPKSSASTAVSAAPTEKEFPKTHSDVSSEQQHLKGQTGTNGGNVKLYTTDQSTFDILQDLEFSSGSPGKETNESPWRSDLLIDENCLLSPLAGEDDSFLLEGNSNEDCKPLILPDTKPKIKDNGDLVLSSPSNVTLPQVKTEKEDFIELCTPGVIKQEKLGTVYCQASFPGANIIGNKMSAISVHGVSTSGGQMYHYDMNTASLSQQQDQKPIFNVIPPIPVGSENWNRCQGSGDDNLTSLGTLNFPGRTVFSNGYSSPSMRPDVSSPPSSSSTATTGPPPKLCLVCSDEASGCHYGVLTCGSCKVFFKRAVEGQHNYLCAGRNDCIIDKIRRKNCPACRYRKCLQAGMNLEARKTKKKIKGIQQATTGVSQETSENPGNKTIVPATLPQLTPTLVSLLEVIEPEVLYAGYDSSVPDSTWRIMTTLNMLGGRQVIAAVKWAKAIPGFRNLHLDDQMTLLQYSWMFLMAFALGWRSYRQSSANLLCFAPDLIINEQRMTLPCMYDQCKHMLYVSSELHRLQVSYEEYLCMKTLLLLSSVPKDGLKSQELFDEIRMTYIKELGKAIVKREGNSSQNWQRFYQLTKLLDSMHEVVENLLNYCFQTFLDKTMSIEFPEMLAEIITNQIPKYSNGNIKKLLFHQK
UniProt P19793: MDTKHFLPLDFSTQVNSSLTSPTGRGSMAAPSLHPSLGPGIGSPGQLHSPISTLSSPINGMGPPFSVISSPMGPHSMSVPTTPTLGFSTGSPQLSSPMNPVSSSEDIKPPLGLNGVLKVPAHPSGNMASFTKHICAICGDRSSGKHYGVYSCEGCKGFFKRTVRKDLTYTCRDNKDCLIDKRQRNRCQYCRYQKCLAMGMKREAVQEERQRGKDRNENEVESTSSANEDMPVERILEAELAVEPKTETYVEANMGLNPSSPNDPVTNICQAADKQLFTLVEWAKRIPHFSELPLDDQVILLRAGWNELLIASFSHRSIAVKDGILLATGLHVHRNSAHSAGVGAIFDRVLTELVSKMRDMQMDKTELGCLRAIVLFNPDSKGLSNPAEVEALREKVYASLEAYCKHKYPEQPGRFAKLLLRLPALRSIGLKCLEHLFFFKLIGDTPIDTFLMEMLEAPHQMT
UniProt P37231: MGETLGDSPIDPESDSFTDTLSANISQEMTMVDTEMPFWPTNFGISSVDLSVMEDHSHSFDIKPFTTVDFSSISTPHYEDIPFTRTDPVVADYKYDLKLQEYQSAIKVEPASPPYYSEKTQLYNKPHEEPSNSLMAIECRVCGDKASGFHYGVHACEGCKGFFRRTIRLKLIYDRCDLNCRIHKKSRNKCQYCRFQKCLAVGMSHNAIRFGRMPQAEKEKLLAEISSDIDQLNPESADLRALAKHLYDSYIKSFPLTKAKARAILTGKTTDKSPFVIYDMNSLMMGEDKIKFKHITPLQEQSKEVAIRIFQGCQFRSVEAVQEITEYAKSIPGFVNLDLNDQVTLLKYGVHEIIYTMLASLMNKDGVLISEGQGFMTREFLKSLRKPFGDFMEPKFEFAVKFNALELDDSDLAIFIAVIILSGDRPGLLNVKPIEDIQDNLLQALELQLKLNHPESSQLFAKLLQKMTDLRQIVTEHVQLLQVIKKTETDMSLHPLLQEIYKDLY
UniProt P11473: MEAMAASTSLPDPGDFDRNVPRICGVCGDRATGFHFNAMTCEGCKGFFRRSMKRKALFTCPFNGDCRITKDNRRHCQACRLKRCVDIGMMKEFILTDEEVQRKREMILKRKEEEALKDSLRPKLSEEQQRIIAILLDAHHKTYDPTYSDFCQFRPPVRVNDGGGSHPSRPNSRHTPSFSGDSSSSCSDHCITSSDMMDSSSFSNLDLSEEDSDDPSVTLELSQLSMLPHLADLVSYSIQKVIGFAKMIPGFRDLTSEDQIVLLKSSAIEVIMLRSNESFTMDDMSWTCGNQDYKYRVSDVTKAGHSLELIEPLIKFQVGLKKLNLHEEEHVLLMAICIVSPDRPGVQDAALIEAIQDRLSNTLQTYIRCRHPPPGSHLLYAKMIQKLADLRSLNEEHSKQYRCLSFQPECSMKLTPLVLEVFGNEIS

What was measured:
[1] = target: Bile acid receptor (Homo sapiens) (UniProt Q96RI1); assay: ATG_FXR_TRANS: Attagene TRANS-FACTORIAL HepG2 Assay for Farnesoid X Receptor (FXR) (AID 2282979); conditions: HepG2 Attagene TRANS FXR-GAL4 reporter transcription;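 further: hits raise reporter mRNA above DMSO so AC50 marks FXR activation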
In short: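 HepG2 cells were transiently transfected with GAL4-UAS reporters driven by chimeric NR-Gal4 proteins and dosed for 24 h. Reporter mRNA was quantified by RT-PCR, fluorescent labelling, HpaI digestion and capillary electrophoresis, with gain of signal scored versus DMSO.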

[2] = ATG_M_06_TRANS: Attagene TRANS-FACTORIAL HepG2 Assay for M06 Transcription Factor (Internal Marker) (AID 2282983); conditions: HepG2 Attagene TRANS M06 internal marker reporter;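 on AC50: potency for rise in reporter mRNA above DMSO baseline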
In short: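 HepG2 cells transiently transfected with GAL4-UAS multiple reporter units, dosed 24 h. Reporter RNA reverse-transcribed, PCR-amplified, 6-FAM-labeled, HpaI-digested and quantified by capillary electrophoresis; this internal-marker signal fitted upward relative to DMSO.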

[3] = ATG_M_32_TRANS: Attagene TRANS-FACTORIAL HepG2 Assay for M32 Transcription Factor (Internal Marker) (AID 2282984); conditions: HepG2 Attagene TRANS M32 internal marker reporter
In short: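 Capillary electrophoresis of 6-FAM-labelled reporter fragments gives the signal; data fitted for gain over DMSO negative control. Source: HepG2 cells bearing transient multiple reporter transcription units, 24 h exposure.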

[4] = target: human Peroxisome Proliferator-activated Receptor delta (PPARd), PPARD (gene 5467) (UniProt Q03181); assay: ATG_PPARd_TRANS: Attagene TRANS-FACTORIAL HepG2 Assay for human Peroxisome Proliferator-activated Receptor delta (PPARd) (AID 2283002)
In short: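 HepG2 cells transiently transfected with GAL4-UAS multiplexed reporter units driven by exogenous chimeric NR-GAL4 proteins; 24 h compound exposure. Reporter mRNA measured by RT-PCR, 6-FAM primer extension, HpaI digestion and capillary electrophoresis; gain of signal fitted relative to DMSO.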

[5] = target: Nuclear receptor subfamily 1 group I member 2 (Homo sapiens) (UniProt O75469); assay: ATG_PXR_TRANS: Attagene TRANS-FACTORIAL HepG2 Assay for human Pregnane X Receptor (PXR) (AID 2283008)
In short: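 HepG2 cells transiently transfected with GAL4-UAS reporter units and PXR-Gal4 chimera, exposed 24 h. Reporter mRNA quantified by RT-PCR, fluorescent labelling, HpaI digestion and capillary electrophoresis; gain of signal vs DMSO.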

[6] = target: rat Thyrotropin Releasing Hormone Receptor (TRH), Trhr (gene 25570) (UniProt Q01717); assay: NVS_GPCR_rTRH: NovaScreen (NVS) G Protein-Coupled Receptor Assay for rat Thyrotropin Releasing Hormone Receptor (TRH) (AID 2283329);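 further: hit means lower bound tracer signal versus DMSO baseline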
In short: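 Rat forebrain membranes; radioligand displacement at TRH receptor by filter-based scintillation counting, read 4 h after dosing. Duplicate single-point screen at 25 uM, actives rerun in concentration series; loss of signal relative to DMSO.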

[7] = ACEA_ER_AUC_viability: ACEA Biosciences xCELLigence Real-Time Cell Analysis on Estrogen Receptor Agonism for Viability (AID 2283782);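 further: continuous compound exposure with impedance area under curve over 80 h; hit means loss of impedance signal meaning reduced cell growth or viability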
In short: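 T47D cells preconditioned in phenol red-free RPMI with charcoal-stripped FBS, then dosed with 8-point 1:4 series from 100 uM (up to 0.5% DMSO). Impedance monitored up to ~80 h; area-under-curve loss versus DMSO taken as viability.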

[8] = CCTE_Deisenroth_AIME_384WELL_CTox_Inactive: Cytotoxicity Assessment (CTOX) in CCTE's 384-well Estrogen Receptor Transactivation Assay without AIME metabolic competence (metabolism negative), Deisenroth Lab (AID 2284039);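 further: cell viability via live-cell protease substrate cleaved to fluorescent probe; cells exposed 24 h to medium preincubated 2 h with alginate-water beads without S9; loss of fluorescence signal means loss of viability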
In short: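 VM7Luc4E2 cells, metabolism-negative arm: test chemicals (0.002–200 uM, 10 points) pre-incubated 2 h with alginate-water microspheres, then medium transferred to cells for 24 h. Viability read as protease-substrate cleavage to fluorescent probe; loss-of-signal, bidirectional fitting.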

[9] = target: Cellular tumor antigen p53 (Homo sapiens) (UniProt P04637); assay: TOX21_p53_BLA_p3_ratio: Tox21 HCT-116 p53 Agonism Beta-lactamase Assay, Ratio, Phase 3 (AID 2283596)
In short: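 HCT116 p53-bla cells (4000/well) given compound in DMSO (217-fold dilution) after 5 h, incubated 16 h at 37C. CCF4-AM substrate 2 h at room temperature; 460/530 nm emission ratio, gain fitted against DMSO.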

[10] = target: Glucocorticoid receptor (Homo sapiens) (UniProt P04150); assay: ATG_GR_TRANS: Attagene TRANS-FACTORIAL HepG2 Assay for human Glucocorticoid Receptor (GR) (AID 2282978); conditions: HepG2 Attagene TRANS GR reporter, mRNA transcription;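 further: activators score as hits since higher reporter transcript over DMSO is fitted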
In short: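 HepG2 cells transiently transfected with multiplexed reporter units in which chimeric NR-GAL4 proteins drive GAL4-UAS reporters; 24 h compound exposure. Reporter mRNA measured by RT-PCR, 6-FAM labelling, HpaI digestion and capillary electrophoresis; gain-of-signal fitted versus DMSO.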

[11] = target: Retinoic acid receptor RXR-alpha (Homo sapiens) (UniProt P19793); assay: OT_NURR1_NURR1RXRa_0480: Odyssey Thera (OT) 8-hour HEK293T Protein Complementation Assay for Nurr1/retinoid X receptor (RXR) (AID 2283385)
In short: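 HEK293T cells expressing Nurr1 and RXRα fused to reporter fragments were dosed with compound for 8 hours. Complex formation was read as fluorescence intensity and analysed as gain of signal against DMSO as baseline.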

[12] = ATG_XTT_Cytotoxicity: Cytotoxicity Assessment in the Attagene TRANS-FACTORIAL HepG2 Assay (AID 2283584);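 on AC50: XTT signal for cell number as viability in transfected HepG2 cells; cells exposed to compound for 24 h before reading; active means loss of viability signal versus DMSO baseline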
In short: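 HepG2 cells transiently transfected with GAL4-UAS multiple reporter units, dosed 24 h; cytotoxicity read by XTT as loss of signal versus DMSO baseline.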

[13] = ACEA_AR_agonist_AUC_viability: ACEA Biosciences xCELLigence Real-Time Cell Analysis on Androgen Receptor Agonism for Viability (AID 2283775);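 on AC50: viability read 80 hours after compound addition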
In short: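 Read-out is area under the impedance curve at 80 h post-dose in 22Rv1 cells, with DMSO as baseline and signal loss taken as reduced viability. Compounds ran in duplicate from 100 uM final.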

[14] = target: Peroxisome proliferator-activated receptor gamma (Homo sapiens) (UniProt P37231); assay: ATG_PPARg_TRANS: Attagene TRANS-FACTORIAL HepG2 Assay for human Peroxisome Proliferator-activated Receptor-gamma (PPARg) (AID 2283007)
In short: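 HepG2 cells transiently transfected with multiplexed GAL4-UAS reporter units and exogenous chimeric NR-Gal4 proteins; reporter mRNA quantified after 24 h compound exposure by RT-PCR, fluorescent labelling, HpaI digestion and capillary electrophoresis; gain-of-signal fitted versus DMSO baseline.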

[15] = target: human Vitamin D Receptor (VDR), VDR (gene 7421) (UniProt P11473); assay: ATG_VDR_TRANS: Attagene TRANS-FACTORIAL HepG2 Assay for human Vitamin D Receptor (VDR) (AID 2283022)
In short: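 HepG2 cells were transiently transfected with GAL4-UAS reporter units and a chimeric VDR-Gal4 construct, then dosed for 24 hours. Reporter mRNA was quantified by RT-PCR, fluorescent labeling, HpaI digestion and capillary electrophoresis; gain of signal analysed vs DMSO.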

[16] = target: Retinoic acid receptor RXR-alpha (Homo sapiens) (UniProt P19793); assay: OT_NURR1_NURR1RXRa_1440: Odyssey Thera (OT) 24-hour HEK293T Protein Complementation Assay for Nurr1/retinoid X receptor (RXR) (AID 2283386)
In short: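 HEK293T cells were dosed with compound and read 24 h later by fluorescence intensity in a protein-fragment complementation format, where Nurr1–RXRα interaction reconstitutes a split reporter. Activity was fitted as gain of signal relative to DMSO baseline.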

[17] = target: Cellular tumor antigen p53 (Homo sapiens) (UniProt P04637); assay: TOX21_p53_BLA_p2_ratio: Tox21 HCT-116 p53 Agonism Beta-lactamase Assay, Ratio, Phase 2 (AID 2283592)
In short: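 HCT-116 cells with p53-responsive beta-lactamase reporter, 4000 cells/well, preincubated 5 h, then compound in DMSO (217-fold dilution) for 16 h at 37C. CCF4-AM substrate 2 h at room temperature; 460/530 nm emission ratio fitted upward versus DMSO.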

[18] = target: Cellular tumor antigen p53 (Homo sapiens) (UniProt P04637); assay: TOX21_p53_BLA_p4_ratio: Tox21 HCT-116 p53 Agonism Beta-lactamase Assay, Ratio, Phase 4 (AID 2283601)
In short: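 HCT-116 p53 beta-lactamase reporter cells (4000/well) preincubated 5 h, then compound (217-fold dilution of DMSO stock) for 16 h at 37C. CCF4-AM substrate added 2 h at room temperature; 460/530 nm emission ratio fitted upward versus DMSO.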

[19] = CCTE_Harrill_HTTr_CellCount_MCF7: CCTE's Cell Proliferation Assessment for the High-Throughput Transcriptomics (HTTr) Platform, Harrill Lab (AID 2284012);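 further: cells exposed to compound for six hours; intended direction is loss of nuclei count meaning fewer cells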
In short: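 MCF-7 cells were exposed for 6 h to an eight-point dilution series; Hoechst-labeled nuclei were counted by high content imaging. Curves were fitted bidirectionally against DMSO as negative control and baseline, with signal loss indicating reduced cell count.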

[20] = target: Cellular tumor antigen p53 (Homo sapiens) (UniProt P04637); assay: TOX21_p53_BLA_p5_ratio: Tox21 HCT-116 p53 Agonism Beta-lactamase Assay, Ratio, Phase 5 (AID 2283599)
In short: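 HCT-116 p53-bla cells (4000/well) plated 5 h, dosed with compound (217-fold DMSO dilution) for 16 h at 37 C; CCF4-AM substrate 2 h at room temperature. Activity is the 460/530 nm emission ratio (405 nm excitation), fitted in gain-of-signal direction versus DMSO.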

Measured: AC50

Cc1cc(Cl)ccc1OCCCC(=O)O
inconclusive: [1] 0.0124 µM | [4] 99.5 µM | [5] 24 µM | [6] 0.0684 µM | [7] 49.8 µM
inactive: [2] | [3] | [8]

CC(c1ccc(O)cc1)c1ccc(O)cc1
inconclusive: [2] 100 µM
inactive: [9]

CCOP(O)OCC
inactive: [2] | [12] | [13]
inconclusive: [10] 100 µM | [5] 37.6 µM | [6] 0.193 µM | [11] 0.13 µM | [7] 0.0114 µM

O=P(O)(O)CCCl
inconclusive: [15] 50 µM | [11] 50 µM | [16] 50 µM | [17] 45.9 µM | [9] 45.9 µM | [19] 50 µM
inactive: [3] | [14] | [18] | [7]

CCNc1nc(NC(C)C)nc(SC)n1
inconclusive: [11] 1.63 µM and 50 µM | [7] 0.0323 µM | [19] 10.2 µM
inactive: [2] | [6]

O=C(CCN1CC1)OCC(CO)(COC(=O)CCN1CC1)COC(=O)CCN1CC1
inactive: [1]
inconclusive: [3] 150 µM | [5] 117 µM

CC(C)[N+](=O)[O-]
inactive: [2]
inconclusive: [15] 100 µM

COc1ccc(C=O)cc1
inactive: [6] | [18] | [13]
inconclusive: [10] 0.445 µM | [5] 3.2 µM | [16] 50 µM | [17] 45.6 µM | [9] 46.1 µM | [20] 45.6 µM

Clc1cccc(Cl)c1Cl
inactive: [15] | [11]
inconclusive: [10] 100 µM | [3] 100 µM | [14] 49.3 µM | [5] 0.129 µM | [16] 50 µM | [12] 0.0542 µM | [7] 1.93 µM

CCCCCCCCOC(=O)c1ccc(C(=O)OCCCCCCCC)c(C(=O)OCCCCCCCC)c1
inconclusive: [1] 101 µM | [2] 101 µM | [3] 101 µM | [4] 24.6 µM | [11] 4.65 µM and 50.5 µM | [17] 31.3 µM
inactive: [18]

CC(O)CCO (centres undefined)
inactive: [9] | [7]
inconclusive: [14] 1.46 µM | [16] 50 µM | [12] 23.5 µM | [18] 87.3 µM
active: [5] 24.1 µM

N#Cc1cccc(C#N)c1
inconclusive: [4] 42.4 µM | [15] 99.5 µM | [17] 79.4 µM | [9] 45.5 µM
inactive: [10] | [14] | [5] | [12] | [18] | [7]

CNC(=N[N+](=O)[O-])NCC1CCOC1 (centres undefined)
inactive: [6] | [9] | [20] | [13]
inconclusive: [4] 95.5 µM | [5] 95.5 µM | [15] 0.166 µM | [17] 44 µM | [19] 9.92 µM | [8] 0.0002 µM

Looked up by compound from the entries so far (two):
Clc1cccc(Cl)c1Cl
inactive: [15] | [11]
inconclusive: [10] 100 µM | [3] 100 µM | [14] 49.3 µM | [5] 0.129 µM | [16] 50 µM | [12] 0.0542 µM | [7] 1.93 µM

CCCCCCCCOC(=O)c1ccc(C(=O)OCCCCCCCC)c(C(=O)OCCCCCCCC)c1
inconclusive: [1] 101 µM | [2] 101 µM | [3] 101 µM | [4] 24.6 µM | [11] 4.65 µM and 50.5 µM | [17] 31.3 µM
inactive: [18]

(cont.)

COP(=O)(O)OC
inactive: [17] | [18]
inconclusive: [3] 189 µM | [20] 84 µM

CCCCCCCCCCCCBr
inactive: [2]
inconclusive: [3] 8.42 µM | [5] 8.28 µM | [9] 46.1 µM

Cc1c([N+](=O)[O-])cc2c(c1[N+](=O)[O-])C(C)(C)CC2(C)C
inactive: [4] | [17] | [19]
inconclusive: [3] 100 µM | [20] 46.1 µM

CN(C)c1ccc(C(=O)c2ccc(N(C)C)cc2)cc1
active: [11] 60.1 µM | [17] 748 nM and 1.29 µM | [9] 826 nM and 1.65 µM | [20] 690 nM and 351 nM | [18] 907 nM and 463 nM | [13] 9.27 µM
inactive: [5]
inconclusive: [10] 24.9 µM | [2] 40.9 µM | [4] 0.117 µM
